In PubChem BioAssay AID2685 (National Center for Advancing Translational Sciences (NCATS), 2010) one finds cell number change and AC50 data, which are given here for 56 molecules.

The nature of this experiment: qHTS Assay for Lipid Storage Modulators in Drosophila S3 Cells.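 For cell number change: cells counted by Cell Tracker Red CMTPX staining in the red channel.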 The settings on record: BODIPY lipid droplet fluorescence, 18-24 h; for cell number change: measured here: cell count max response, cells fed with added oleic acid. A digest of the protocol:
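Drosophila S3 cells loaded with oleic acid (400 uM, as added) and compounds at several concentrations; lipid droplets imaged by 488-nm laser-scanning cytometry, 500–530 nm intensity and object ratio to cell channel. Percent activity normalized to 20 uM Triacsin C.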

[1] abbreviates: measured here: cell number channel AC50, cells fed with added oleic acid.
[2] abbreviates: measured here: lipid fluorescence (Fed channel) AC50, cells fed with added oleic acid.

SMILES strings stand for the structures. The list shows a part of the results. Shown are side measurements of this screen, not its main read-out; they come without a call. The list favours compounds with an active or inconclusive main result. Potencies come from curve fits of mixed quality, noted in brackets.

As for `O=C1CC(N2CCC(O)CC2)C(=O)N1c1ccc(Br)cc1` (stereo unspecified), the cell number change is 34.8%. Moreover, the AC50 under setting [1] is 6.51 µM [rising, full curve, poor fit].

Take `Cc1onc(-c2ccccc2Cl)c1C(=O)NC(=S)Nc1ccccc1F`: the cell number change stood at 22.8%. For the same molecule, the AC50 under setting [2] is 2.59 µM [rising, full curve].

Take `O=C(NCCN1CCN(c2ccccc2)CC1)Nc1ccc(Cl)cc1`: the cell number change was -4.17%.

Turning to `CCn1c(CC(=O)Nc2ccccc2OC)nnc1SCC(=O)Nc1ccccc1F`, the cell number change is 5.42%. In addition, under setting [2], the half-maximal activity concentration (AC50) is 29.1 µM [rising, single point].

Take `C=CCc1c(C)nc(-c2ccccc2)nc1Nc1ccccc1O`: the cell number change was -61.2%. The half-maximal activity concentration (AC50) under setting [1] was 29.1 µM [falling, partial curve, poor fit]. Further, the half-maximal activity concentration (AC50) under setting [2] was 4.61 µM [falling, partial curve].

For `CCN(CC)CCCNC(=O)Cn1cnc2ccc(S(=O)(=O)N3CCC(C)CC3)cc2c1=O`, the cell number change was -53.2%. For the same molecule, the half-maximal activity concentration (AC50) under setting [2] is 1.16 µM [falling, partial curve].

`COC(=O)C1CN(S(=O)(=O)c2ccccc2)CCN1S(=O)(=O)c1ccccc1` (stereo unspecified): the cell number change is -24.1%. Further, the AC50 under setting [1] was 0.731 µM [falling, full curve]. The concentration at half-maximal activity (AC50) under setting [2] was 0.731 µM [falling, full curve].

For the molecule `CCOC(=O)c1c(-c2ccccc2)oc2ccc(OCC(=O)NNC(=O)CCC(=O)O)cc12`, the cell number change is -30.6%. The concentration at half-maximal activity (AC50) under setting [1] is 32.6 µM [falling, single point].

On to `COc1ccc(CNC(=O)CCCC2=NS(=O)(=O)c3ccccc3N2)cc1`, for which the cell number change amounted to 10.2%.

With `COc1ccc(S(=O)(=O)Nc2ccc3oc(C)c(C(=O)O)c3c2)cc1`, the cell number change was found to be 6.32%.

As to `COc1ccc(CN2CCN(CCc3ccccc3)C(CCO)C2)c(Cl)c1OC` (stereo unspecified), the cell number change worked out at 5.09%. Also, the AC50 under setting [2] is 0.651 µM [rising, full curve].

For the molecule `O=C(COc1ccccc1)NC(=S)Nc1cccc2cc(O)ccc12`, the cell number change was -47.3%. The AC50 under setting [1] is 29.1 µM [falling, single point]. Moreover, under setting [2], the AC50 is 29.1 µM [falling, single point].

In the case of `O=C(NCC1CCCCC1)C1CCC(=O)N(CCc2cccc(F)c2)C1` (stereo unspecified), the cell number change is 32.7%. Moreover, the AC50 under setting [1] is 29.1 µM [rising, single point]. Besides, under setting [2], the AC50 was 0.731 µM [falling, full curve, poor fit].

With `CCN(CC)c1nc(C)nc2c1sc(=S)n2C`, the cell number change was -54.5%. In addition, under setting [1], the concentration at half-maximal activity (AC50) was 29.1 µM [falling, single point]. Besides, the concentration at half-maximal activity (AC50) under setting [2] was 29.1 µM [falling, single point].

On to `COc1ccc(CCn2c(-c3ccc(Cl)cc3)n[nH]c2=S)cc1OC`, for which the cell number change turned out to be 24.9%. In addition, the AC50 under setting [1] is 1.16 µM [rising, full curve, poor fit].

As for `CCOC(=O)c1ccccc1NC(=O)c1nc2nccc(C)n2n1`, the cell number change came out at 68.6%. In addition, under setting [1], the concentration at half-maximal activity (AC50) was 4.61 µM [rising, full curve].

Regarding `O=C(Cc1cnc2ncnn2c1)N1CCc2c([nH]c3ccccc23)C1c1ccccc1F` (stereo unspecified), the AC50 under setting [2] was 0.58 µM [rising, single point].

As to `Cc1nc2ccc(N=NC3=C(O)CC(C)(C)CC3=O)cc2s1`, the cell number change is -42%. Besides, the concentration at half-maximal activity (AC50) under setting [1] was 1.46 µM [falling, partial curve]. Further, under setting [2], the AC50 was 2.59 µM [rising, full curve].

Take `Cc1ccc2c(c1)N(CC(=O)NC1CCC(C)CC1)C(=O)c1cccnc1O2` (stereo unspecified): the cell number change was -8.65%. Further, the AC50 under setting [2] was 5.17 µM [rising, partial curve].

For `COCCOC(=O)c1[nH]c2c(c1C)C(=O)CC(c1ccc(OC)c(OC)c1)C2` (stereo unspecified), the cell number change is -24.5%. Also, the half-maximal activity concentration (AC50) under setting [2] was 29.1 µM [falling, single point].

As for `COc1ccccc1N(C)S(=O)(=O)c1ccc(C(=O)OCC(=O)NCc2ccco2)cc1`, the cell number change is -13.8%.

With `CCN(CC(=O)Nc1ccc(OC)c(OC)c1)S(=O)(=O)c1ccc(C)cc1`, under setting [2], the AC50 is 2.31 µM [rising, partial curve].

As for `COc1ccccc1/C=C\C=N\NC(=O)CCn1nnc2ccccc21`, under setting [1], the AC50 was 0.517 µM [rising, single point].

Turning to `COC(=O)c1cc(CNC(=O)c2ccccc2Cl)ccc1OC`, the cell number change was -7.69%. In addition, the half-maximal activity concentration (AC50) under setting [2] is 0.00461 µM [rising, full curve, poor fit].

Turning to `CCCCC(=O)O[C@H]1CC[C@H]2[C@@H]3CCc4cc(O)ccc4[C@H]3CC[C@]12C`, the cell number change is -45.1%. Also, the AC50 under setting [1] is 18.4 µM [falling, partial curve, poor fit]. Under setting [2], the half-maximal activity concentration (AC50) was 32.6 µM [falling, partial curve].

Turning to `CCOC(=O)Cn1c(C)[n+](CC(=O)c2ccccc2)c2ccccc21`, the cell number change is -7.46%. Moreover, the half-maximal activity concentration (AC50) under setting [2] was 4.11 µM [falling, full curve, poor fit].

Turning to `CNC(=O)c1oc(-c2ccccc2)nc1C`, the cell number change was -3.49%. The AC50 under setting [2] is 32.6 µM [rising, single point].

Turning to `O=C(N=C1SC2CS(=O)(=O)CC2N1Cc1ccccc1)C1CCCO1` (stereo unspecified), the cell number change stood at 6.11%. Also, under setting [1], the AC50 was 2.31 µM [rising, partial curve]. For the same molecule, the AC50 under setting [2] was 29.1 µM [rising, partial curve, poor fit].

Take `O=C(/C=C/c1ccc2c(c1)OCO2)NC1CCCC1`: the cell number change turned out to be 21.9%. In addition, under setting [1], the AC50 is 3.26 µM [rising, partial curve]. Besides, under setting [2], the concentration at half-maximal activity (AC50) is 29.1 µM [rising, single point].

`O=C(NCc1ccc(Cl)cc1)C1CCN(C(=O)Cc2ccccc2)CC1`: the AC50 under setting [2] was 0.13 µM [falling, full curve, poor fit].

Consider `NC(=O)c1cc2ccccc2o/c1=N\NC(=O)c1ccco1`, for which the cell number change was 0.127%. Besides, under setting [2], the AC50 was 3.66 µM [rising, partial curve].

With `N#C/C(=C\c1ccccc1Cl)C(=O)Nc1ccccn1`, the AC50 under setting [2] was 23.1 µM [falling, partial curve].

For the molecule `COc1ccc([N+](=O)[O-])cc1NC(=O)CCN1CCN(C)CC1`, the cell number change is -31.2%. Besides, under setting [2], the concentration at half-maximal activity (AC50) was 14.6 µM [falling, partial curve, poor fit].

For `COCCNC(=O)CN(C(=O)c1ccc(N2CCCC2)nc1)c1ccc(F)c(Cl)c1`, the cell number change came to 4.56%. Also, the AC50 under setting [2] was 29.1 µM [falling, single point].

For `CC(/C=C1\SC(=O)N(CC(=O)Nc2ccc(O)cc2)C1=O)=C\c1ccccc1`, the cell number change is -42.9%. Moreover, the AC50 under setting [1] is 32.6 µM [falling, partial curve, poor fit]. Besides, the AC50 under setting [2] was 32.6 µM [falling, partial curve, poor fit].

Regarding `Cc1ccc(C(C)NC(=O)c2c(-c3ccccc3)noc2C)cc1C` (stereo unspecified), the cell number change turned out to be 31.4%. Under setting [1], the concentration at half-maximal activity (AC50) was 3.55 µM [rising, partial curve, poor fit]. Also, the half-maximal activity concentration (AC50) under setting [2] is 15.8 µM [rising, single point].

Turning to `CC(C)(C)c1ccc(C2SCC(=O)N2c2cccc(C(=O)O)c2)cc1` (stereo unspecified), the cell number change came out at 179%. Further, under setting [1], the concentration at half-maximal activity (AC50) was 29.1 µM [rising, single point]. In addition, under setting [2], the concentration at half-maximal activity (AC50) was 23.1 µM [rising, single point].

For the molecule `COc1ccccc1CCNC(=O)c1c(C)nn(CC(C)C)c1Cl`, the cell number change was -2.53%. The AC50 under setting [2] is 0.651 µM [falling, single point].

`Cc1ccc(NC(=O)NC2CC(=O)N(c3ccc4c(c3)OCCO4)C2)cc1` (stereo unspecified): the cell number change is -25%. Also, the AC50 under setting [2] is 20.6 µM [falling, single point].

With `O=C(Cn1cc(Br)ccc1=O)Nc1ccc2c(c1)OCO2`, the cell number change was 33.1%. In addition, the AC50 under setting [1] is 6.51 µM [rising, partial curve]. Under setting [2], the AC50 is 9.2 µM [rising, partial curve].

As for `COc1cccc(/C=N/NC(=O)C[n+]2ccccc2)c1OC`, the cell number change was 16.5%. For the same molecule, the half-maximal activity concentration (AC50) under setting [1] is 4.61 µM [rising, single point].

For `O=C(O)Cc1ccc(NC(=O)c2cnccn2)cc1`, the cell number change was -32.3%. The AC50 under setting [1] was 32.6 µM [falling, single point]. In addition, the half-maximal activity concentration (AC50) under setting [2] is 18.4 µM [falling, partial curve, poor fit].

Consider `COC(=O)c1ccc(NC(=O)CN2CCOCC2)cc1`, for which the cell number change was -5.43%. In addition, the AC50 under setting [2] was 29.1 µM [rising, single point].

`COC(=O)c1sc(N/N=C/c2ccc(C(C)C)cc2)nc1C`: the cell number change amounted to 344%. Also, the AC50 under setting [1] was 20.6 µM [rising, partial curve].

Consider `Cc1cccc(Nc2nc(-c3sc(C)nc3C)cs2)c1`, for which the cell number change was -68%. Under setting [1], the AC50 was 20.6 µM [falling, partial curve]. The concentration at half-maximal activity (AC50) under setting [2] was 0.651 µM [rising, single point].

Regarding `CCCc1nnc(SCC(=O)NC2CC2)n1CC`, the cell number change came to 5.13%.

On to `O=C(O)C1C2CCC(O2)C1C(=O)NCc1ccccc1Br` (stereo unspecified), for which the cell number change is -47.8%. Moreover, the AC50 under setting [1] was 13 µM [falling, partial curve, poor fit].

Regarding `CCOc1ccc(-n2c(SCC(=O)O)nc3sc4c(c3c2=O)CCCC4)cc1`, the cell number change turned out to be 3.85%. Further, the AC50 under setting [2] is 0.00411 µM [rising, full curve, poor fit].

Regarding `Cc1cccc(NC(=O)COc2ccccc2C(=O)NC(C)c2ccccc2)c1` (stereo unspecified), the cell number change turned out to be 30.3%. Moreover, under setting [1], the AC50 was 2.06 µM [rising, partial curve, poor fit]. Further, the AC50 under setting [2] is 0.731 µM [falling, partial curve, poor fit].

Turning to `COc1cc(CC2COC(=O)C2(O)Cc2ccc(O)c(OC)c2)ccc1O` (stereo unspecified), the cell number change is -46.3%. Under setting [1], the concentration at half-maximal activity (AC50) is 11.6 µM [falling, partial curve, poor fit]. Further, the half-maximal activity concentration (AC50) under setting [2] was 13 µM [falling, partial curve].

For the molecule `COc1ccc(C(=O)/C=C/Nc2ccc(S(=O)(=O)Nc3cc(OC)nc(OC)n3)cc2)c(OC)c1`, under setting [2], the AC50 was 6.31 µM [falling, partial curve].

On to `COCc1ccc(C(=O)N2CCCC(C(=O)c3ccc(Cl)cc3C)C2)o1` (stereo unspecified), for which the cell number change is -13.3%. Further, the AC50 under setting [1] was 6.51 µM [falling, single point].

Turning to `Cc1cccc(NC(=O)CCNS(=O)(=O)c2cccc3nonc23)c1`, the cell number change is 9.54%. Under setting [1], the concentration at half-maximal activity (AC50) was 4.61 µM [falling, single point]. Further, the AC50 under setting [2] was 6.51 µM [falling, single point].

As for `Cc1onc(-c2ccccc2)c1C(=O)c1c[nH]c(C(=O)NCCCN2CCOCC2)c1`, the cell number change was -21.8%.

Turning to `COc1ccc(OC(C)c2ccc(C#N)c(=O)[nH]2)cc1` (stereo unspecified), the AC50 under setting [2] was 6.51 µM [falling, partial curve, poor fit].

Consider `Cc1cc(C)c(S(=O)(=O)N2CCOC2CNC(=O)C(=O)NCCCn2ccnc2)c(C)c1` (stereo unspecified), for which the AC50 under setting [1] was 0.58 µM [falling, single point].
